{"source": "paper PMC8012331", "about": "“Drug-induced hepatic steatosis in absence of severe mitochondrial dysfunction in HepaRG cells: proof of multiple mechanism-based toxicity” (Cell Biology and Toxicology, 2020)", "key": {"[1]": {"system": "fatty acid translocase (FAT, also known as CD36)", "test": "RT-qPCR FAT/CD36 mRNA in HepaRG cells", "assay_type": "cell-based, human", "conditions": "4 days, vs control", "protocol": "(§1) Total RNA was extracted with the Nucleospin RNA isolation system purchased from Macherey-Nagel (Düren, Germany), which included a DNase treatment step. Quantification of isolated RNAs was assessed using a Nanodrop 1000 (Thermo Fisher Scientific, Waltham, MA). RNAs were reverse-transcribed into cDNAs using the High-Capacity cDNA Reverse Transcription Kit purchased from Applied Biosystems (Woolston, UK). Gene expression was assessed by real-time quantitative PCR analysis (RT-qPCR) using SYBR Green PCR Master Mix (Applied Biosystems) and a 384-well QuantStudio™ 7 Flex Real-Time PCR System (Thermo Fisher Scientific). Sequences of the primers used to measure gene expression are presented in Supplementary Table 3. Expression of GAPDH was chosen as reference and the 2^−ΔΔCt calculation method was used to express the relative expression of each selected gene."}, "[2]": {"test": "Maximum plasma concentration (Cmax) in patients", "conditions": "worked out from cited Cmax in patients"}, "[3]": {"system": "primary human hepatocytes (PHH)", "test": "Neutral lipids with Nile red in primary human hepatocytes", "assay_type": "cell-based", "conditions": "4 days", "protocol": "Primary human hepatocytes (PHH) were purchased from Biopredic International (Saint-Grégoire, France). Cells were seeded by the supplier in coated 96-well plates at a density of 5 × 10^4 cells/well. Upon receipt, culture medium was removed and replaced by William’s E medium supplemented as previously described for HepaRG cell differentiation, except for DMSO set at 1%. After 2–3 days, cells were treated as for HepaRG cells. For HepaRG cells and PHH, cells were always maintained in incubators at 37 °C with 5% CO2 and saturating humidity.\nCells were then incubated with PBS containing 0.1 μg/mL Nile red for 30 min and washed once. […] For each well, four pictures were taken at a magnification of × 20 and analyzed with Columbus software (PerkinElmer) for quantification. These pictures were always taken in four different areas around the center of each well, and these areas were the same from one well to another, as programmed by the Columbus software. This software was also designed to count only living cells after exclusion of dying cells harboring nuclei with abnormal shape or altered Hoechst intensity. […] Neutral lipids were then normalized per number of nuclei and expressed relative to control cells. Examples of images used for neutral lipid quantification are shown in Supplementary Fig. 2."}, "[4]": {"conditions": "treated patients; ref Schulz M et al., Crit Care 2012 ;16(4):R136; listed as Amiodarone (AMIO); cited from earlier work"}, "[5]": {"conditions": "cited from earlier work"}, "[6]": {"system": "mitochondrial fatty acid oxidation (mtFAO)", "test": "mtFAO with [U-14C]palmitic acid in HepaRG cells", "assay_type": "cell-based, human", "conditions": "4 days, vs control", "protocol": "Experiments were carried out on passages 9 to 16. […] DPEN was dissolved in water.\nmtFAO was assessed by measuring the acid-soluble radiolabeled metabolites resulting from the mitochondrial oxidation of [U-^14C]palmitic acid as previously described (Anthérieu et al. [2011]), with slight modifications. Briefly, culture medium was removed and cells were washed with warm PBS before addition of phenol red-free William’s E medium containing 1% fatty acid-free BSA, [U-^14C]palmitic acid (185 Bq per well, corresponding to 0.5 pM), 100 μM cold palmitic acid, 1 mM L-carnitine, and 1% DMSO. After 3 h of incubation at 37 °C, perchloric acid (final concentration, 6%) was added and plates were centrifuged at 2000×g for 10 min, and supernatant was counted for [^14C]-labeled acid-soluble β-oxidation products using a Tri-Carb 4910TR liquid scintillation counter (PerkinElmer). Results were normalized to total protein content determined using the Pierce BCA assay kit from Thermo Fischer Scientific (Waltham, MA). Results were expressed in comparison to control cells."}, "[7]": {"system": "fatty acid synthase (FASN)", "test": "RT-qPCR FASN mRNA in HepaRG cells", "assay_type": "cell-based, human", "conditions": "4 days, vs control", "protocol": "as §1"}, "HepaRG cells": {"system": "HepaRG cells", "test": "Cellular ATP level (CellTiter-Glo) in HepaRG cells", "assay_type": "cell-based, human", "conditions": "4 days, vs controls", "protocol": "Cellular ATP level was measured using the CellTiter-Glo® Luminescent Cell Viability assay purchased from Promega (Charbonnières, France), according to the manufacturer’s instructions. Briefly, control and treated HepaRG cells were first washed with warm PBS and kept for 30 min at room temperature in phenol red-free William’s E medium. Cells were next incubated with the CellTiter-Glo® reagent for 10 min at room temperature. Cells were then transferred in opaque-walled multiwell plates and the luminescent signal was quantified using a POLARstar Omega microplate reader (BMG Labtech, Ortenberg, Germany). Results were expressed in comparison to control cells."}}, "note": "Where “and” joins values, the source holds several entries; their conditions need not be identical. Equal entries are not always repeated. Entries after “also recorded” stand apart in the source; their conditions may differ."}
{"smiles": "CCCCc1oc2ccccc2c1C(=O)c1cc(I)c(OCCN(CC)CC)c(I)c1", "note": "[AMIO, amiodarone]", "values": [{"measurement": "FAT/CD36 mRNA level", "setting": "[1]", "value": "significantly augmented"}, {"measurement": "Concentration corresponding to 100xCmax", "setting": "[2]", "value": 290, "unit": "µM"}, {"measurement": "Steatosis in PHH batches (six batches tested)", "setting": "[3]", "value": "induce steatosis in the six different PHH batches"}, {"measurement": "Therapeutic blood (or plasma) concentration in patients", "setting": "[4]", "value": "1 - 2 mg/L and 1.6 - 3.1 µM"}, {"measurement": "Cmax", "setting": "[5]; read-out: Maximum plasma concentration (Cmax) in patients, ref given per drug", "value": "≤ 2.9", "unit": "µM"}, {"measurement": "Maximum plasma concentration (Cmax) in patients", "setting": "[5]; ref given per drug", "value": "≤ 1870", "unit": "ng/mL"}, {"measurement": "Effect on mtFAO", "setting": "[6]", "value": "inhibited this metabolic pathway; also recorded: moderate"}, {"measurement": "FASN mRNA level", "setting": "[7]", "value": "tended to increase mRNA level"}, {"measurement": "Loss of cellular ATP relative to the maximum concentration selected for the study", "setting": "HepaRG cells", "value": "25 µM (profound loss of cellular ATP for higher concentrations, as shown in Supp. fig 1)"}]}
